The data set in a line: general procedure: solution-phase peptide synthesis; 1-(3-dimethylaminopropyl)-3-ethylcarbodiimide methiodide / hydroxybenzotriazole.

Step yield data for six substances are collected here from US5385918A (Miles Inc., priority 1993, dated 1995).

Consider “1-[1-[2-(S)-[[1-[2-(S)-Amino-1-Oxo-3-phenylpropyl]-L-asparaginyl]amino]-4- m ethylpentyl]-L-proline]-L-isoleucine Phenylmethyl Ester”, for which the step yield (late stage modification step) was 95%.

“1-[1-[2-(S)-[[2-(S)-amino-3-cyclohexyl-1-oxopropyl]-amino]-4-methylpentyl]- L-proline]-L-isoleucine Phenylmethyl Ester”: for the setting “late stage modification step”, the step yield is recorded as 94%.

“1-[1-[2-[[3-Cyclohexyl-2-(S)-[[(1,1-dimethylethoxy)-carbonyl]amino]-1-oxopr opyl]amino]-4-methylpentyl]-L-proline]-L-isoleucine Phenylmethyl Ester” came in with a step yield (coupling step) of 64%.

In turn, “1-[1-[2-(S)-[[1-[1-[(1,1-Dimethylethoxy)carbonyl]-L-phenylalanyl]-L-asparag inyl]amino]-4-methylpentyl]-L-proline]-L-isoleucine Phenylmethyl Ester” showed a step yield (coupling step) of 72%.

On to “1-[1-[2-(S)-[[4-Amino-2-(S)-[[(1,1-dimethylethoxy)-carbonyl]amino]-1,4-diox obutyl]amino]-4-methylpentyl]-L-proline]-L-isoleucine Phenylmethyl Ester”, for which, under “coupling step”, the step yield stood at 57%.

For the substance “1-[1-[2-(S)-[[2-(S)-[[(1,1-Dimethylethoxy)carbonyl]amino]-1-oxo-3-cyclohexy lpropyl]amino]-3-methylpentyl]-L-proline]-L-isoleucine Benzylamide”, under “coupling step”, the step yield is given as 53%.
